According to the supplement of paper PMC7666118:
Some of the results follow.

Amino acid sequences for entries named in this document (tags omitted). A change or cut given only in a name is not applied to a line headed by its entry.
UniProt O75843: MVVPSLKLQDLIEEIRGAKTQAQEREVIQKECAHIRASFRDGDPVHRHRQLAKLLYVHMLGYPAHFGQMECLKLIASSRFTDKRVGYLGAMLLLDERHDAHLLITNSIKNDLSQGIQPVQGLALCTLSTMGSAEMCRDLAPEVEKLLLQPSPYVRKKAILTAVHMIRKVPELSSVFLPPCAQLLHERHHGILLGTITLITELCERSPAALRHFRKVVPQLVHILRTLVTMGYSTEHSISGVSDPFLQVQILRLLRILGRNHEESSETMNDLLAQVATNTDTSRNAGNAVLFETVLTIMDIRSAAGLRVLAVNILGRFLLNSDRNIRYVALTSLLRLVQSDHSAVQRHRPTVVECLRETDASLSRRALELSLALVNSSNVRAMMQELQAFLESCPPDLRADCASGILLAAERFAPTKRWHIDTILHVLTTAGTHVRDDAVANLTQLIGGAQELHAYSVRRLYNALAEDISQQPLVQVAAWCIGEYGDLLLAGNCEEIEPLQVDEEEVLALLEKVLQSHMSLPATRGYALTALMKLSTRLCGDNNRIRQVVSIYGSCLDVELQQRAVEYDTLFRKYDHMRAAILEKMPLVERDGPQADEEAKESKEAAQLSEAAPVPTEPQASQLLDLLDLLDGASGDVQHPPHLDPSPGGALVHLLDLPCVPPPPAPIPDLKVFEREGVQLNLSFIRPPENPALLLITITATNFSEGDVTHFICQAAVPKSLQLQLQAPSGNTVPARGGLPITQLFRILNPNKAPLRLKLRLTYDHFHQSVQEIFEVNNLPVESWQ
UniProt Q7L266: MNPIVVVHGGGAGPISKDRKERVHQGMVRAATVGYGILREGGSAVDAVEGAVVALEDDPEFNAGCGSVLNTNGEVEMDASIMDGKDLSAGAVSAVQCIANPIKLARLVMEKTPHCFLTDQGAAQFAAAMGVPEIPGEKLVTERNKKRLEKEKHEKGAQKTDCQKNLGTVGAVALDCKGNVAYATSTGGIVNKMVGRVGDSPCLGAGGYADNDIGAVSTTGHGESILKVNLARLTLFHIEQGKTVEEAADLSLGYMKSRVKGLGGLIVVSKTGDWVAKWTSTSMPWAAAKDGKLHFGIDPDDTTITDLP
UniProt Q9BZZ5: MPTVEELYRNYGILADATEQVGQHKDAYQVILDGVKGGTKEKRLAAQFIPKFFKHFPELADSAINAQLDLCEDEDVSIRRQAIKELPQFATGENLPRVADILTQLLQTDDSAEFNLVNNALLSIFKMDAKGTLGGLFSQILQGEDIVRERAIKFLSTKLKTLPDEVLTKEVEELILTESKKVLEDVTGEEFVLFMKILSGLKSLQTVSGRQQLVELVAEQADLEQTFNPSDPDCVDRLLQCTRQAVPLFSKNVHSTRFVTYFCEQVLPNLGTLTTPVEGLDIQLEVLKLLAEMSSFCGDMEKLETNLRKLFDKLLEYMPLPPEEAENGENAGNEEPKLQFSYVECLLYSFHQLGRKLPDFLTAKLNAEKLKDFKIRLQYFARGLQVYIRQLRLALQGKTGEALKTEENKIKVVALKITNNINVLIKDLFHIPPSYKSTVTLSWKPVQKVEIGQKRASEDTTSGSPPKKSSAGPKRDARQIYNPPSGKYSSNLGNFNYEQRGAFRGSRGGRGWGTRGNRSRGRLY
UniProt Q8N3C0, whole entry: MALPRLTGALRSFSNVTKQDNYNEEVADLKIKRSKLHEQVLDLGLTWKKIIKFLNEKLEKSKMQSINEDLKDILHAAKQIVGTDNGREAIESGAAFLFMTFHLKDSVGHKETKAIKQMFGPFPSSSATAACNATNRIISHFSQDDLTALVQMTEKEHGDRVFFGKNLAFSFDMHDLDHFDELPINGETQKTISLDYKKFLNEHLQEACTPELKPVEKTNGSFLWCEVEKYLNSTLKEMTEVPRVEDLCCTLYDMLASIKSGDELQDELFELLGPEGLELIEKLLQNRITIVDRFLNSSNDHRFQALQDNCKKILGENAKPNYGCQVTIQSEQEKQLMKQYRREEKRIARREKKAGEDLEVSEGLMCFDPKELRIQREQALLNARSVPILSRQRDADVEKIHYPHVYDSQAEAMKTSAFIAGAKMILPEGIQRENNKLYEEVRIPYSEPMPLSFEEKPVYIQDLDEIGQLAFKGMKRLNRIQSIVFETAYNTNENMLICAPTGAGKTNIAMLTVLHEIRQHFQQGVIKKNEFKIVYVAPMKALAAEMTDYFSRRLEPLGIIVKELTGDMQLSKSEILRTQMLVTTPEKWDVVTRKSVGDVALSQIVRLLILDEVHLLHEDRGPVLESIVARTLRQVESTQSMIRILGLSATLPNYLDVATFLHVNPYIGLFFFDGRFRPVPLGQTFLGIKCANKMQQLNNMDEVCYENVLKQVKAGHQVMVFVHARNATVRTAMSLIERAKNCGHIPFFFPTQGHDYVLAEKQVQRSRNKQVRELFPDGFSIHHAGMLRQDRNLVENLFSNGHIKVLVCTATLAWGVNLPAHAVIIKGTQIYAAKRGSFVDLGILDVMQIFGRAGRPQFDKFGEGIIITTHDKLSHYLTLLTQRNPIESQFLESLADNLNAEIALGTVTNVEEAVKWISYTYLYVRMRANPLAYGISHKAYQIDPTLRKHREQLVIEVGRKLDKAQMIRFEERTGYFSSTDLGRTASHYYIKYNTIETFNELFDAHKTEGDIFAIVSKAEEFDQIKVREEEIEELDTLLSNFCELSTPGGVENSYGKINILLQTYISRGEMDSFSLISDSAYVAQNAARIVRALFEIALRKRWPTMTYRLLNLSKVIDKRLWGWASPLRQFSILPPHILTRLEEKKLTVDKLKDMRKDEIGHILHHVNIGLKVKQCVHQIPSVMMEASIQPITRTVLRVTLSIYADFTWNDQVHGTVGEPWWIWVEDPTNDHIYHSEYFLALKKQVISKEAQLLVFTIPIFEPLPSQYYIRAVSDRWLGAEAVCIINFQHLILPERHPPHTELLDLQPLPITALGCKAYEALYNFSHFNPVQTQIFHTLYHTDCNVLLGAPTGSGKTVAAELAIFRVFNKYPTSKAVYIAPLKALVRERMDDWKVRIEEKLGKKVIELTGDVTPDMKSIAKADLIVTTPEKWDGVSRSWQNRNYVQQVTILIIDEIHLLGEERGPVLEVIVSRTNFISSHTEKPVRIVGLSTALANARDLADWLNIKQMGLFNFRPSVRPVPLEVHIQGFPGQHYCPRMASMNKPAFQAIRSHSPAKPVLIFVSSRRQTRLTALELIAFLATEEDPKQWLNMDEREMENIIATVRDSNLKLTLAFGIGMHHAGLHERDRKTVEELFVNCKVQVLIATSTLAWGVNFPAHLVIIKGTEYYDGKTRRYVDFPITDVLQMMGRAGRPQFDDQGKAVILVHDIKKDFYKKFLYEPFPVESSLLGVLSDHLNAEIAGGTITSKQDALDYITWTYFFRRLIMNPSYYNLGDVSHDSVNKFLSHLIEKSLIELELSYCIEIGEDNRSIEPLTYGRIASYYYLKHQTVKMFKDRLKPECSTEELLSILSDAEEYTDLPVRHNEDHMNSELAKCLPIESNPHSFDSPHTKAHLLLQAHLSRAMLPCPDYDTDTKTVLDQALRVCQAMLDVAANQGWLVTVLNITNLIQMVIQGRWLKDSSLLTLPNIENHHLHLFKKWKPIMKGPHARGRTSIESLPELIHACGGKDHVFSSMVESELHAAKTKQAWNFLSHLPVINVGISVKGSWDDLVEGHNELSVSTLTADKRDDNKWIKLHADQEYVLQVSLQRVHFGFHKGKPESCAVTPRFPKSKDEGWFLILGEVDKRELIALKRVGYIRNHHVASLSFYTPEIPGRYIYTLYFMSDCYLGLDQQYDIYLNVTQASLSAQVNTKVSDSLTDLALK
UniProt Q4KMQ2: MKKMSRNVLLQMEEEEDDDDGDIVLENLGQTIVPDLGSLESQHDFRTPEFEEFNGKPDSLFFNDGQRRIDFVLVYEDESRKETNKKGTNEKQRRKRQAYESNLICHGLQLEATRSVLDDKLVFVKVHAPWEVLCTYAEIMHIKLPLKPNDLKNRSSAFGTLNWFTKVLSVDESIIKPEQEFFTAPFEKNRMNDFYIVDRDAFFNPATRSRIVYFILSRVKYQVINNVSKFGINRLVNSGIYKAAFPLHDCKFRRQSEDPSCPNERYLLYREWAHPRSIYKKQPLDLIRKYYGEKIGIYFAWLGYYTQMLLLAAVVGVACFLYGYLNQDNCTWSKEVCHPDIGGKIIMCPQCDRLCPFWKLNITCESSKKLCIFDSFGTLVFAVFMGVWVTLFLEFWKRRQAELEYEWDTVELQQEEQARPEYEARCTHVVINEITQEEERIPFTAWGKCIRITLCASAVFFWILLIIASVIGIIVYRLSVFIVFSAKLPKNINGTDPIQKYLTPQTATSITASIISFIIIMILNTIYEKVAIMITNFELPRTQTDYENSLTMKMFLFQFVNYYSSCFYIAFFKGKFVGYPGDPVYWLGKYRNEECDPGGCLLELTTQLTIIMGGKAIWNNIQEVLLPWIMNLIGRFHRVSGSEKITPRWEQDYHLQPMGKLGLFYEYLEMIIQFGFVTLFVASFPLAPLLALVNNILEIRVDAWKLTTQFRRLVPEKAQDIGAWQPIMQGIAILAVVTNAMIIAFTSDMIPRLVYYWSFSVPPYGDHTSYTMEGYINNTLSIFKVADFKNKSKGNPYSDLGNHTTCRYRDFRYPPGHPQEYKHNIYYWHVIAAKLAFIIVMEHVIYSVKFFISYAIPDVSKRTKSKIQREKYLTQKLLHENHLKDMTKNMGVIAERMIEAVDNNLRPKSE
UniProt Q96Q42: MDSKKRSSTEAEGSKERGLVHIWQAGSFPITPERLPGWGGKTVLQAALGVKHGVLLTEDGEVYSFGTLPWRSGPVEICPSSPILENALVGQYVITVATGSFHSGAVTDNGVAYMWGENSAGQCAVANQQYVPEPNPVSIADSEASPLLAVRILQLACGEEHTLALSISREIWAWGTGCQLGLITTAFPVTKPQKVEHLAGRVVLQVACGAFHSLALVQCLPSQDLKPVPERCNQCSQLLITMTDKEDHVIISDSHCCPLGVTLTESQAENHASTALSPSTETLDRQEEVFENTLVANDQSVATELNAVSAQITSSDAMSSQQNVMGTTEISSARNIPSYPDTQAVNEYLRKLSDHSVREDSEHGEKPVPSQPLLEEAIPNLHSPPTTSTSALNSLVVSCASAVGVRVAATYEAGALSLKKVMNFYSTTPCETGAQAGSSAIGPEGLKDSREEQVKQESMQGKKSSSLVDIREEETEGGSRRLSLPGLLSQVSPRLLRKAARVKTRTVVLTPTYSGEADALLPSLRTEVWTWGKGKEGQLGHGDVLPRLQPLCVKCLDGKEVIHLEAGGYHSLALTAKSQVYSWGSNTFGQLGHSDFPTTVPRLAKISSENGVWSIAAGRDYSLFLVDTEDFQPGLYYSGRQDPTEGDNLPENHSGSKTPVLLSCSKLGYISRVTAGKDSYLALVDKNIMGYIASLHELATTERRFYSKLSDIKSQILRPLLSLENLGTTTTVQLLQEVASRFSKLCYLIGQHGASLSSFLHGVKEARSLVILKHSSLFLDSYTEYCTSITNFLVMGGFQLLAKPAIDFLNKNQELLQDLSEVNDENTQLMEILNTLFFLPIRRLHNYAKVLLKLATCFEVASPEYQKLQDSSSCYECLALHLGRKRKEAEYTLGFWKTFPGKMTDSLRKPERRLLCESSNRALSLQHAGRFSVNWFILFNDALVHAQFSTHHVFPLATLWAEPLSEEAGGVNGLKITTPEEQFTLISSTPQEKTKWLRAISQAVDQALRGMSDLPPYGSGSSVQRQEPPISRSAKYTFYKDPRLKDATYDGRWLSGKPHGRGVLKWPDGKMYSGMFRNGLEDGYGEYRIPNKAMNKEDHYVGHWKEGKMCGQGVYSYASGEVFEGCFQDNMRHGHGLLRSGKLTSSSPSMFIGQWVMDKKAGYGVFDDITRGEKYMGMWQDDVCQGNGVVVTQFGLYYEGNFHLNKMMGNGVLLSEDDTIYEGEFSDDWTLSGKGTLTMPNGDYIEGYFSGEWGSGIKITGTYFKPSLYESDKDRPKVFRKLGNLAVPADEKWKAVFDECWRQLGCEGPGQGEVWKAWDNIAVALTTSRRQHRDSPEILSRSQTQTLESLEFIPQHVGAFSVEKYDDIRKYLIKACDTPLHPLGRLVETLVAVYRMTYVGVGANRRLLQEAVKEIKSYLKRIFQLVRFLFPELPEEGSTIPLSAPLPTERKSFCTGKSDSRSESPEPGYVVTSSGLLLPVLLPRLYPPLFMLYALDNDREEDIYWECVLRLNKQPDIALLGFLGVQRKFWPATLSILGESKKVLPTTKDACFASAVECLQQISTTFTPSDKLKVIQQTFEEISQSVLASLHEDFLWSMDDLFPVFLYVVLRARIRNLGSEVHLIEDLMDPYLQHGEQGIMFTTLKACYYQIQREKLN
UniProt P18085: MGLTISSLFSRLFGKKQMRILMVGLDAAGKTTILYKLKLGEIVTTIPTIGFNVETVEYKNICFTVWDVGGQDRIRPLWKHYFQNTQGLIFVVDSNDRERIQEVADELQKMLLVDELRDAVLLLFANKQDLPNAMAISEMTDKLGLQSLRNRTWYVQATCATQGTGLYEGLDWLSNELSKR

compound: COc1ccc(Cn2ccc3cc(C)c(C(=O)NO)cc32)cc1; experiment: dose-dependent thermal stabilisation call (2D-TPP, DLPTP, 10% FDR) (binary (1 = stabilised)); higher = stabilised by the compound; settings: system: HL-60 intact cells; concentration range 0.04-10 µM
Description: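 2D thermal proteome profiling in intact HL-60 cells treated with BRD-3811 (0, 0.04, 0.29, 2, 10 uM) for 90 min at 37 C, then heated 3 min at one of 12 temperatures (42-63.9 C). Soluble protein was quantified by TMT10 MS. The value is the DLPTP call of the paper: dose-dependent thermal stabilisation over all temperatures at 10% FDR (F-test of a dose-response against a flat model); one experiment, one call per tested protein.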

Target | dose-dependent thermal stabilisation call
AP1B1 (UniProt Q10567) | inactive: 0
ATG7 (UniProt O95352) | inactive: 0
ANKRD11 (UniProt Q6UB99) | inactive: 0
ANKFY1 (UniProt Q9P2R3) | inactive: 0
ARV1 (UniProt Q9H2C2) | inactive: 0
AP1G2 (UniProt O75843) | inactive: 0
ASRGL1 (UniProt Q7L266) | inactive: 0
ASPH (UniProt Q12797) | inactive: 0
API5 (UniProt Q9BZZ5) | inactive: 0
ARL8A (UniProt Q96BM9) | inactive: 0
ARF3 (UniProt P61204) | inactive: 0
ARID1B (UniProt Q8NFD5) | inactive: 0
ASH2L (UniProt Q9UBL3) | inactive: 0
ASS1 (UniProt P00966) | inactive: 0
ANAPC5 (UniProt Q9UJX4) | inactive: 0
AIG1 (UniProt Q9NVV5) | inactive: 0
ARPC3 (UniProt O15145) | inactive: 0
ARF5 (UniProt P84085) | inactive: 0
ASCC3 (UniProt Q8N3C0) | inactive: 0
ANXA5 (UniProt P08758) | inactive: 0

Target | dose-dependent thermal stabilisation call
AP4B1 (UniProt Q9Y6B7) | inactive: 0
ARMC6 (UniProt Q6NXE6) | inactive: 0
AHSA1 (UniProt O95433) | inactive: 0
ANO6 (UniProt Q4KMQ2) | inactive: 0
AKAP13 (UniProt Q12802) | inactive: 0
ALS2 (UniProt Q96Q42) | inactive: 0
ANKRD28 (UniProt O15084) | inactive: 0
ARHGAP26 (UniProt Q9UNA1) | inactive: 0
ALMS1 (UniProt Q8TCU4) | inactive: 0
ARID2 (UniProt Q68CP9) | inactive: 0
APPL1 (UniProt Q9UKG1) | inactive: 0
AMPD3 (UniProt Q01432) | inactive: 0
AFF1 (UniProt P51825) | inactive: 0
AKT1 (UniProt P31749) | inactive: 0
AP3D1 (UniProt O14617) | inactive: 0
ANAPC4 (UniProt Q9UJX5) | inactive: 0
ARHGDIA (UniProt P52565) | inactive: 0
ALG12 (UniProt Q9BV10) | inactive: 0
AQR (UniProt O60306) | inactive: 0
ARF4 (UniProt P18085) | inactive: 0

Individual results from the list:
For dose-dependent thermal stabilisation call, ALG12 (UniProt Q9BV10) is listed with inactive: 0
For dose-dependent thermal stabilisation call, AFF1 (UniProt P51825) is listed with inactive: 0
